From article PMC7862700 come the findings set out here.

By UniProt entry, the sequences of proteins in these tests, tags left out. Where a name states a change or a piece, a line headed by the entry shows the natural chain unless it says otherwise.
UniProt Q9Y603: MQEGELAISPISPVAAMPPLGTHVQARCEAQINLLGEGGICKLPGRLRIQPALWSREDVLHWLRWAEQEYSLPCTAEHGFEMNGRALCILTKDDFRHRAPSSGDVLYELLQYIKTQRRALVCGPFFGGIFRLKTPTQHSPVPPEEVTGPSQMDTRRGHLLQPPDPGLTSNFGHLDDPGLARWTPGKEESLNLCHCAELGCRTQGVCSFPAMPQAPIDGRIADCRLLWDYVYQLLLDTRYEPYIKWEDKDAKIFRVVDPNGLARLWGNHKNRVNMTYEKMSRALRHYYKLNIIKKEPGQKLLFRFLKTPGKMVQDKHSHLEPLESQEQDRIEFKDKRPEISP
UniProt P41212: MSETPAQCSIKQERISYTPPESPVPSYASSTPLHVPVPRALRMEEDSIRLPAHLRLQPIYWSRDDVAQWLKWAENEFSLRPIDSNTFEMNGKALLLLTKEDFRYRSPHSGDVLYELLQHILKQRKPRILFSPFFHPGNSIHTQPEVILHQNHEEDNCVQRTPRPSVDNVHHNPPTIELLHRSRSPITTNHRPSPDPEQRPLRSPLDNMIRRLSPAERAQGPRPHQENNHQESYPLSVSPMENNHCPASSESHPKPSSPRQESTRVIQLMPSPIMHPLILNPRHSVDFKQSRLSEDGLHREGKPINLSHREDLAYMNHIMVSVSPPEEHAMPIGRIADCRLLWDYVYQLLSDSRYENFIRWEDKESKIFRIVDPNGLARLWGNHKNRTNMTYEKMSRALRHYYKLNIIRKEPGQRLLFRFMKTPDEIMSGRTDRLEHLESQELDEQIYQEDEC

The entries are a selection whose mix differs from that of the whole data set. At the low end of the ranking the order means little.

Assay in all cases: DAPPL (digital affinity profiling via proximity ligation, sequencing)
Holding throughout (details): 10 mM Tris-HCl pH 7.5, 50 mM NaCl, 1 mM DTT, 4% glycerol, room temperature, 30 min; GST-TFs on glutathione beads, 16-mer random dsDNA library, 0.1% …; high values mean tight binding; double strand, one strand shown; scale: fold enrichment (6-mer frequency, TF over GST control)

One experiment has as its target T1, ELF3 (UniProt P78545).
T1 sequence: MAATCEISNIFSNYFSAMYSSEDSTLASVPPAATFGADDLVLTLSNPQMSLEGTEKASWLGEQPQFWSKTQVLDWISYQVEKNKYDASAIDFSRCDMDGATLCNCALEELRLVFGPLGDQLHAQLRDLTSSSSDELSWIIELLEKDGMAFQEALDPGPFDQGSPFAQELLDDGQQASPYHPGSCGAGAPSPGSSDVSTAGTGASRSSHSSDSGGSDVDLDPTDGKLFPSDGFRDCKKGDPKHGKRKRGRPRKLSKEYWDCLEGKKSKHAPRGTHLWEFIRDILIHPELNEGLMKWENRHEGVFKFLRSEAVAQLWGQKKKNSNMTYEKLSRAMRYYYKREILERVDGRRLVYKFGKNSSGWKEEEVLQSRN

Another experiment deals with ETV7 (UniProt Q9Y603).
Another experiment addresses ETV6 (UniProt P41212).

Regarding CGTGGG, the binding signal with ELF3 is 0.39; in the experiment with ETV7, 0.395; in the experiment with ETV6, 0.39.
For AGCACC, the results for the binding signal with ELF3, in the experiment with ETV7 and with ETV6 were 0.939, 0.957 and 0.923, respectively.
For GAGTAC, in that order: 0.55, 0.531 and 0.567.
For GGGTGC, in that order: 0.79, 0.89 and 0.857.
For TGAAGT, in that order: 0.842, 0.798 and 0.787.
Consider CACGTC, for which the binding signal with ELF3 was determined as 0.89; in the experiment with ETV7, 0.834; with ETV6, 0.867.
